Results on one substance are retold here after paper PMC10368723.

In the assay the target is MET404 (endogenous, GSC23 cells) (human (endogenous in GSC23)) (UniProt P08581). The assay can be described thus: affinity purification with mass spectrometry; MET404 immunoprecipitation from cell lysate (GSC23 by the legend of Fig. 5f), co-IP soft RIPA lysis buffer, antibody at 4 °C overnight, protein A/G agarose, washed with PBST, SDS-PAGE and LC-MS.

No constants are given. Whether binding was seen depends on the method and setting. Binding seen in cells or lysates may run through a third protein. These calls come from enrichment with a bait or labelling near it, and not all partners need be listed.

On to HSP90AA1 (from UniProt P07900 1-732), for which the binding result is listed as “binds”.
